This is an account of results in PMC4266902, “Néstor-Guillermo Progeria Syndrome: a biochemical insight into Barrier-to-Autointegration Factor 1, alanine 12 threonine mutation” (BMC Molecular Biology, 2014).

Chains of the proteins cited; added tags and fusions are not shown. Lines headed by an entry give the natural chain unless they say otherwise; changes in a name come on top.
UniProt O75531: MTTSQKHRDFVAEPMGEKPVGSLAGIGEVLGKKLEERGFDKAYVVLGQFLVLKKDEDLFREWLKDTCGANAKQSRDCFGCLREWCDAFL

Construct, isoform or probe ends are uncertain for at least one entry. Weaker means in comparison with the reference protein, sequence or condition of that experiment. Tags and fusion partners may be left off the protein sequences shown.

This series addresses T1, BANF1 A12T (UniProt O75531).
T1 sequence (looked up, limits assumed): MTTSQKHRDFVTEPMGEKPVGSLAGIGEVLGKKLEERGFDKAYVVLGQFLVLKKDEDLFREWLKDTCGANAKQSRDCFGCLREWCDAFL
Nature of the series: EMSA. Particulars: 0-1 uM protein, 10 nM DNA, 30 min 4 C, marked defect vs WT; 10 mM Tris-HCl pH 7.0, 20 mM NaCl, 100 ng/mL BSA, 5 mM DTT, 30 min at 4 C; 7% PAGE 0.5x TBE at 4 C (short DNA) or 0.6% agarose 1x TBE (plasmid); recombinant protein; protein details: N-terminal His6; label: 5'-FAM on strand 1.

On to “CTCTCCCTTCGCTCCTTTCCTCT (double strand) [FAM-labelled short dsDNA]”, for which the binding result is reported as “binds more weakly”.
